These are yes or no findings as the source states them, for the method shown.
Molecular target: fluorescent ISG15 (UniProt P05161)
Test: fluorescence polarisation; both purified

Chains of the proteins cited; added tags and fusions are not shown. Lines headed by an entry give the natural chain unless they say otherwise; changes in a name come on top. A line that says so, or that is headed by a name, gives the form on record, which may keep a tag or linker.
fluorescent ISG15 (P05161, form named): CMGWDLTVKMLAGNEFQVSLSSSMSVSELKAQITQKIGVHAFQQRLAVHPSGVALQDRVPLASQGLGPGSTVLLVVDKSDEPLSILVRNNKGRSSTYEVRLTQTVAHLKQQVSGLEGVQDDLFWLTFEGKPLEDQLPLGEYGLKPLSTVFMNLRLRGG

B1: NS1B AA mutant (W36A/Q37A) (protein, UniProt P03502 1-281)
chain: MADNMTTTQIEVGPGATNATINFEAGILECYERFSAARALDYPGQDRLHRLKRKLESRIKTHNKSEPENKRMSLEERKAIGVKMMKVLLFMDPSAGIEGFEPYCVKNPSTSKCPNYDWTDYPPTPGKYLDDIEEEPENVDHPIEVVLRDMNNKDARQKIKDEVNTQKEGKFRLTIKRDIRNVLSLRVLVNGTFLKHPNGDKSLSTLHRLNAYDQNGGLVAKLVATDDRTVEDEKDGHRILNSLFERFDEGHSKPIRAAETAVGVLSQFGQEHRLSPEEGDN
  binding: no binding

From paper PMC10693564
